Measured values as given in paper PMC10351895.
No constants are given. Whether binding was seen depends on the method and setting. In cells and extracts the contact can be indirect. Some binding calls cover weakened binding; strength is not graded here. Tags and fused reporters may be left off the sequences shown.

How the values were obtained:
[1] = molecular target: T1, 3A-MTREX (endogenous gene tagged) (mouse (endogenous in mESCs)) (UniProt Q9CZU3); assay: co-IP; as a3, but lysis in co-IP buffer supplemented with RNase A (1 µL of 10 mg/mL in 900 µL)
T1 sequence (chain, biotin on the AviTag (cells express bacterial BirA ligase)): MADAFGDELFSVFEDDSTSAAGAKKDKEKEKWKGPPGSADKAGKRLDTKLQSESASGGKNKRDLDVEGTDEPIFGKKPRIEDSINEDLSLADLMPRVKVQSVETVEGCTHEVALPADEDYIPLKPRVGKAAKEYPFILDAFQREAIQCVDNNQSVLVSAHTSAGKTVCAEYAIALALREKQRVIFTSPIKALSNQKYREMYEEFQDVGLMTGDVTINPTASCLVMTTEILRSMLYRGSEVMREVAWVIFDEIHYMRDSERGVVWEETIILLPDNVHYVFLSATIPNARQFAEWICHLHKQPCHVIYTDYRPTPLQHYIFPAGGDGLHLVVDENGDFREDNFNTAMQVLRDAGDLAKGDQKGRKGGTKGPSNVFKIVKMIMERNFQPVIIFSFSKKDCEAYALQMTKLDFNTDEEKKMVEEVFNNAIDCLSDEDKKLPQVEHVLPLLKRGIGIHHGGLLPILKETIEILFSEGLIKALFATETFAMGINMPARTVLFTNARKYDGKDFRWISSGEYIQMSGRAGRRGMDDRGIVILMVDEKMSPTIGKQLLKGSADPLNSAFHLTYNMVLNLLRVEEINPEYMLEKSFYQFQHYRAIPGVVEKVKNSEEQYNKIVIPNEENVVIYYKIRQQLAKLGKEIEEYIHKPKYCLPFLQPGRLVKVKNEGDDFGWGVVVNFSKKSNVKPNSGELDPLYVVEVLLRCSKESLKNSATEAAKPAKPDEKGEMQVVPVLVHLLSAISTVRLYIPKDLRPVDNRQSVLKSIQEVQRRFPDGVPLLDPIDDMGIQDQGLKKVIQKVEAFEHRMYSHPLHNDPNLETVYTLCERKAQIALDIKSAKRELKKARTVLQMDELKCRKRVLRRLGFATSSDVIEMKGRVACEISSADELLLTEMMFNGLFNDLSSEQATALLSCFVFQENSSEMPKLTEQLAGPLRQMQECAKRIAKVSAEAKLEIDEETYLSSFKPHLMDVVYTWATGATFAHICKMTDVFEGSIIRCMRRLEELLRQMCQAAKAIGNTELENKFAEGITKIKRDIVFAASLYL

[2] = molecular target: T1, 3A-MTREX (endogenous gene tagged) (mouse (endogenous in mESCs)); assay: co-IP; streptavidin beads capture the endogenous biotinylated 3A-tagged protein from lysate of mESCs transiently transfected with NRDE2 constructs; co-IP buffer 20 mM Tris-HCl pH 7.5, 150 mM NaCl, 1 mM EDTA, 1% Triton X-100; without RNase A; western blot

B1: V5-NRDE2 fused to 2A-Puro (protein, UniProt Q80XC6 1-1172)
chain: MALFPAFADVSEASGDGAFRKELDWLSNPSFRVGNLTSLSRQTEEVTALASEGSPPPRYSFIRSPLKSELSGESNTSEKLAQTSRKKKKEKKKRRKHQHHRKTKRRHEQLSSSGSESDTEAGKDRASRSIRDDQKEAEKPCQGSNAAAAVAAAAGHRSIWLEDIHDLTDVFRTDKKPDPANWEYKSLYRGDIARYKRKGDSCLGINPKKQCISWEGASAAKKHSHRHLERYFTKKNVGLMRTEGIAVCSNPEPASSEPVTFIPVKDSAEAATPVTSWLNPLGIYDQSTTQWLQGQGPAEQESKQPDSQQDRENAALKARVEEFNRRVRENPWDTQLWMAFVAFQDEVMRSPGIYALGEGEQEKHRKSLKLLLEKKLAVLERAIESNPGSVELKLAKLQLCSEFWEPSALAKEWQKLLFLHPNNTSLWQRYLSFCQSQFGTFSVSKLHSLYGKCLSTLSAVKDGSMLSHPVLPGTEEAMFGLFLQQCHFLRQAGHSEKVISLFQAMVDFTFFKPDSVKELPTKVQVEFFEPFWDSGEPRVGEKGARGWRAWMHQQERGGWVLITPDEDDEEPEEEDQEIKDKTLPRWQIWLAVERSRDQRHWRPWRPDKTKKQTEEDCEDPERQVLFDDIGQSLIRLSSPDLQFQLIQAFLQFLGVPSGFLPPASCLYLAMDESSIFESELYDEKPLTYFNPSFSGISCVGSMEQLGRPRWTKGHNREGEEFVRNVFHLVLPLLAGKQKSQLSLSWLRYEIAKVIWCLHTKKKRLKSQGKSCKKLAKNLLKEPENRNNFCLWKQYAHLEWLLGNTEDARKVFDTALSMAGSSELKDRELCELSLLYAELEMELSPDSRGATTGRAVHILTRLTESSPYGPYTGQVSSTQVLKARKAYELALQDCLGQSCASSPAPAEALDCLGSLVRCFMLFQYLTVGIDAAVQIYGRVFAKLKGSARLEDPGPEDSTSSQSLTNVLEAVSMMHTSLLRFHMNVCVYPLAPLRETLSDALKLYPGNQVLWRAYVQIQNKSHSANKTRRFFDTVTRSAKHLEPWLFAIEAEKLRKKLVESVQRVGGREVHATIPETGLTHRIRALFENAIRSDKGNQCPLLWRMYLNFLVSLGNKERSKGVFYKALQSCPWAKVLYMDAMEYFPDELQEILDVMTEKELRVRLPLEELELLLED
[1]
  binding: binds
[2]
  binding: binds
